{"source": "patent US20140316217A1", "about": "“SYSTEM AND METHOD FOR MONITORING ANESTHESIA AND SEDATION USING MEASURES OF BRAIN COHERENCE AND SYNCHRONY” (priority 2013, published 2014)", "origin": "cited, not measured here", "test_system": "patient", "conditions": "general anesthesia with isoflurane and oxygen; sedation with dexmedetomidine; cited from earlier work", "note": "Some results were stated once for a whole list of compounds, not compound by compound."}
{"smiles": "FC(F)OC(Cl)C(F)(F)F", "note": "(stereo not shown) [isoflurane]", "values": [{"measurement": "BIS values", "value": "40-to-60"}]}
